# From the supplement of paper PMC8728848
# This is one part of the list.
# B1: Agalectin (Anopheles gambiae) (protein)
# chain: MSNRPFTAKFPRYPENGDEVFIRGKLKDDAKSFSVNFCLPRPAQVAEHQTPPYIALHFKTIYDERDDTSRVVLNWKNLQWQQEEVLDNYWHVDRSQTFRVVFRLHEDCIKVFVNSVDHPPDYQFPVQLPLDQIESIELWDDVEHVEEISFRYDNGNSY
# Columns and labels:
# Assay in all cases: glycan array binding signal (z-score within array); higher = stronger binding
# Conditions in all cases: glycan notation: IUPAC condensed, linker removed
# Neu5Ac(a2-8)Neu5Ac = molecular target: Neu5Ac(a2-8)Neu5Ac
# Outline: (§1)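 The binding signal is a Z-score computed within each array. Data were drawn from 3228 arrays in the Consortium for Functional Glycomics database, restricted to those with a known protein sequence. Scores were averaged over arrays of the same protein sequence at different concentrations or buffers, and over linkers, and negative values can be taken as non-binding.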
# [1] = molecular target: Neu5Ac(a2-8)Neu5Ac(a2-3)Gal(b1-3)GalNAc(b1-4)[Neu5Ac(a2-3)]Gal(b1-4)Glc
# Outline: as §1
# [2] = molecular target: Neu5Ac(a2-8)Neu5Ac(a2-3)Gal(b1-3)GalNAc(b1-4)[Neu5Ac(a2-8)Neu5Ac(a2-3)]Gal(b1-4)Glc
# Outline: as §1
# [3] = molecular target: Neu5Ac(a2-8)Neu5Ac(a2-3)Gal(b1-4)Glc
# Outline: as §1
# [4] = molecular target: Neu5Ac(a2-8)Neu5Ac(a2-3)Gal(b1-4)GlcNAc
# Outline: as §1
# [5] = molecular target: Neu5Ac(a2-8)Neu5Ac(a2-3)[Gal(b1-3)GalNAc(b1-4)]Gal(b1-4)Glc
# Outline: as §1
# [6] = molecular target: Neu5Ac(a2-8)Neu5Ac(a2-3)[GalNAc(b1-4)]Gal(b1-4)Glc
# Outline: as §1
# [7] = molecular target: Neu5Ac(a2-8)Neu5Ac(a2-8)Neu5Ac
# Outline: as §1
# [8] = molecular target: Neu5Ac(a2-8)Neu5Ac(a2-8)Neu5Ac(a2-3)Gal(b1-4)Glc
# Outline: as §1
# [9] = molecular target: Neu5Ac(a2-8)Neu5Ac(a2-8)Neu5Ac(a2-3)[Gal(b1-3)GalNAc(b1-4)]Gal(b1-4)Glc
# Outline: as §1
# [10] = molecular target: Neu5Ac(a2-8)Neu5Ac(a2-8)Neu5Ac(a2-3)[GalNAc(b1-4)]Gal(b1-4)Glc
# Outline: as §1
# [11] = molecular target: Neu5Ac(a2-8)Neu5Ac(a2-8)Neu5Ac(a2-8)Neu5Ac(a2-3)[GalNAc(b1-4)]Gal(b1-4)Glc
# Outline: as §1
# [12] = molecular target: Neu5Ac(a2-8)Neu5Gc(a2-3)Gal(b1-4)GlcNAc
# Outline: as §1
# [13] = molecular target: Neu5Ac(b2-6)Gal(b1-4)GlcNAc
# Outline: as §1
# Neu5Ac(b2-6)GalNAc = molecular target: Neu5Ac(b2-6)GalNAc
# Outline: as §1
# [14] = molecular target: Neu5Ac9Ac(a2-3)Gal(b1-3)GlcNAc
# Outline: as §1
# [15] = molecular target: Neu5Ac9Ac(a2-3)Gal(b1-4)GlcNAc
# Outline: as §1
# [16] = molecular target: Neu5Ac9Ac(a2-6)Gal(b1-4)GlcNAc
# Outline: as §1
# [17] = molecular target: Neu5Gc(a2-3)Gal(b1-3)GlcNAc
# Outline: as §1
# [18] = molecular target: Neu5Gc(a2-3)Gal(b1-3)[Fuc(a1-4)]GlcNAc
# Outline: as §1
# Neu5Gc(a2-3)Gal(b1-4)Glc = molecular target: Neu5Gc(a2-3)Gal(b1-4)Glc
# Outline: as §1
# [19] = molecular target: Neu5Gc(a2-3)Gal(b1-4)GlcNAc
# Outline: as §1
# [20] = molecular target: Neu5Gc(a2-3)Gal(b1-4)GlcNAc(b1-3)Gal(b1-4)GlcNAc(b1-2)Man(a1-3)[Neu5Gc(a2-3)Gal(b1-4)GlcNAc(b1-3)Gal(b1-4)GlcNAc(b1-2)Man(a1-6)]Man(b1-4)GlcNAc(b1-4)GlcNAc
# Outline: as §1
# [21] = molecular target: Neu5Gc(a2-3)Gal(b1-4)[Fuc(a1-3)]GlcNAc
# Outline: as §1
# [22] = molecular target: Neu5Gc(a2-6)Gal(b1-4)GlcNAc
# Outline: as §1
# Neu5Gc(a2-6)GalNAc = molecular target: Neu5Gc(a2-6)GalNAc
# Outline: as §1
# [23] = molecular target: Neu5Gc(a2-8)Neu5Ac(a2-3)Gal(b1-4)GlcNAc
# Outline: as §1
# [24] = molecular target: Neu5Gc(a2-8)Neu5Gc(a2-3)Gal(b1-4)GlcNAc
# Outline: as §1
# [25] = molecular target: Neu5Gc(a2-8)Neu5Gc(a2-3)Gal(b1-4)GlcNAc(b1-3)Gal(b1-4)GlcNAc
# Outline: as §1
# [26] = molecular target: Neu5Gc(a2-8)Neu5Gc(a2-6)Gal(b1-4)GlcNAc
# Outline: as §1
# [27] = molecular target: Neu5Gc(b2-6)Gal(b1-4)GlcNAc
# Outline: as §1
binder,measurement,setting,value
B1,glycan array binding signal (z-score),Neu5Ac(a2-8)Neu5Ac,1.39
same,glycan array binding signal (z-score),[1],-0.061
same,glycan array binding signal (z-score),[2],0.647
same,glycan array binding signal (z-score),[3],-1.45
same,glycan array binding signal (z-score),[4],-0.855
same,glycan array binding signal (z-score),[5],-0.464
same,glycan array binding signal (z-score),[6],0.168
same,glycan array binding signal (z-score),[7],0.742
same,glycan array binding signal (z-score),[8],0.369
same,glycan array binding signal (z-score),[9],-0.035
same,glycan array binding signal (z-score),[10],-0.183
same,glycan array binding signal (z-score),[11],-0.422
same,glycan array binding signal (z-score),[12],-1.09
same,glycan array binding signal (z-score),[13],-0.879
same,glycan array binding signal (z-score),Neu5Ac(b2-6)GalNAc,-1.01
same,glycan array binding signal (z-score),[14],-0.958
same,glycan array binding signal (z-score),[15],-0.305
same,glycan array binding signal (z-score),[16],-0.921
same,glycan array binding signal (z-score),[17],0.15
same,glycan array binding signal (z-score),[18],-0.788
same,glycan array binding signal (z-score),Neu5Gc(a2-3)Gal(b1-4)Glc,-0.541
same,glycan array binding signal (z-score),[19],-0.288
same,glycan array binding signal (z-score),[20],-0.007
same,glycan array binding signal (z-score),[21],-0.729
same,glycan array binding signal (z-score),[22],-0.281
same,glycan array binding signal (z-score),Neu5Gc(a2-6)GalNAc,-0.611
same,glycan array binding signal (z-score),[23],-0.431
same,glycan array binding signal (z-score),[24],-0.636
same,glycan array binding signal (z-score),[25],0.981
same,glycan array binding signal (z-score),[26],-0.681
same,glycan array binding signal (z-score),[27],2.8

# Some of the entries above in another layout.
binder	measurement	setting	value
B1	glycan array binding signal (z-score)	[4]	-0.855
same	glycan array binding signal (z-score)	[18]	-0.788
